The results in this text go back to article PMC8093518, “PprA Protein Inhibits DNA Strand Exchange and ATP Hydrolysis of Deinococcus RecA and Regulates the Recombination in Gamma-Irradiated Cells” (Frontiers in Cell and Developmental Biology, 2021).

Results are given in words; binding and its absence hold for the method and conditions named. For some assays here: Binding seen in cells or lysates may run through a third protein. Some results given as binding are weak or reduced against the parent protein; the word gives no strength. Tags and fused reporters may be left off the sequences shown.

For assay [1], the target named is T1, DrRecA (RecA of Deinococcus radiodurans) fused to the T18 or T25 domain of adenylate cyclase, BACTH construct (D. radiodurans) (UniProt P42443).
T1 sequence: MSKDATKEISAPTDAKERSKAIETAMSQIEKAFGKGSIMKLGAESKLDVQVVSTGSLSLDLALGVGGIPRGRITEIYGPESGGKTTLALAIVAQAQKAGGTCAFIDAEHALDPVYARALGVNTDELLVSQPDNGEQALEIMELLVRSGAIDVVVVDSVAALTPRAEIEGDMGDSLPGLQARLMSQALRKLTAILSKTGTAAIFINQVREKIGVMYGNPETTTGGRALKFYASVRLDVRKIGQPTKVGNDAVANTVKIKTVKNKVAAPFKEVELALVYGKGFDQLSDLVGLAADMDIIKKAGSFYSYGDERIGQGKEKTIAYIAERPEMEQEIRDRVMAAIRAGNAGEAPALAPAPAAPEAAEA
Kind of assay: two-hybrid; bacterial two-hybrid (BACTH) in E. coli BTH101, T18 and T25 tags at the C-terminus; white-blue colonies on X-Gal/IPTG plates at 30°C and β-galactosidase activity in liquid culture (Miller units).

Assay [2] deals with T2, PprA of Deinococcus radiodurans fused to the T18 or T25 domain of adenylate cyclase, BACTH construct (D. radiodurans) (UniProt O32504).
T2 sequence: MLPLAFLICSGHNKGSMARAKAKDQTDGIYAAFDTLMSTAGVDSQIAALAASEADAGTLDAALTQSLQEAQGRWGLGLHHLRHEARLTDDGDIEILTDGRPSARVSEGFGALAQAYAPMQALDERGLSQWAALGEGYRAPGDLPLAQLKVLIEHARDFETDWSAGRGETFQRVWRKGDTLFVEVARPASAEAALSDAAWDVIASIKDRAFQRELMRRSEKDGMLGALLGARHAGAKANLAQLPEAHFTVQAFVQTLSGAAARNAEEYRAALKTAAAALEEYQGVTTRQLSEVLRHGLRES
The description is as above.

Assay [3] concerns the target T3, poly His-tagged PprA expressed in D. radiodurans (D. radiodurans) (UniProt O32504).
T3 sequence: T2 sequence
Put plainly: co-IP; cell-free extracts of D. radiodurans co-expressing T18 tagged and His tagged proteins; immunoprecipitation with anti-His or anti-T18 antibody, immunoblot with the other antibody.

Assay [4] addresses T4, T18 tagged PprA expressed in D. radiodurans (D. radiodurans) (UniProt O32504).
T4 sequence: T2 sequence
Described as above.

B1: Recombinant PprA, wild type, purified (natural protein, D. radiodurans, UniProt O32504 1-300, looked up)
chain: T2 sequence
notes: PprA of Deinococcus radiodurans, from plasmid pETpprA constructed earlier (Rajpurohit and Misra, 2013); His tag removed with Factor-Xa; also called PprA^wt; pETpprA; source: E. coli BL21(DE3) pLysS, purified (Ni-chelating Sepharose, Q-sepharose, Heparin, Superdex-200)
Consider B1, for which the binding entry in assay [1] is “binds”.

B2: DrRecA (RecA of Deinococcus radiodurans) fused to the T18 or T25 domain of adenylate cyclase, BACTH construct (protein, UniProt P42443 1-363)
chain: T1 sequence
As for B2, the binding entry in assay [1] and in assay [2] was “binds” each time.

B3: T18 tagged DrRecA expressed in D. radiodurans (protein, UniProt P42443 1-363)
chain: T1 sequence
Consider B3, for which, in assay [3], the binding entry is “binds”.

B4: poly His-tagged DrRecA expressed in D. radiodurans (protein, UniProt P42443 1-363)
chain: T1 sequence
Take B4: in assay [4], the binding entry is “binds”.
